This is an account of results in paper PMC12040169 (PLOS Biology, 2025).

The other results are listed elsewhere or left out.

The assay has as its system T1, CTL2-GFP (C. trachomatis L2/434/Bu, GFP-expressing).
T1 construct: L2/434/Bu, GFP-expressing
Set-up: species or system HeLa; Intracellular C. trachomatis growth in HeLa cells, bulk GFP fluorescence relative to DMSO. The conditions noted are these: bulk GFP, single well; 28.5 h, 10 µM; inhibitor.
In the case of `FC(F)(F)c1ccc(N2CCNCC2)nc1SCc1ccccc1Cl` [CBK003964A], the “% of control remaining” value was 79.0323%.

As to `CCOc1ccc(-c2noc(CCC(=O)NC)n2)cc1OC` [CBK269226], the “% of control remaining” value is 104.558%.

Consider `COc1ncc(-c2cnc(N)c(-c3ccc(C=O)cc3)n2)c(OC)n1` [CBK064110], for which the “% of control remaining” value was 197.976%.

In the case of `O=C(O)/C=C/C(=O)NNC(=O)c1ccccc1Br` [CBK261786], the “% of control remaining” value turned out to be 113.098%.

Turning to `COC(=O)CNC(=O)c1ccncc1Br` [CBK057760], the “% of control remaining” value came out at 121.914%.

As to `Cc1cc(O)n2nc(C)c(-c3ccc(F)cc3)c2n1` [CBK283642], the “% of control remaining” value turned out to be 103.319%.

Regarding `COc1ccc2[nH]cc(CC3CCNCC3)c2c1` [CBK012779], the “% of control remaining” value was found to be 94.7835%.

For `COc1ccc(CNC(=O)c2ccccc2NS(=O)(=O)c2cc(Cl)ccc2Cl)cc1` [CBK113964], the “% of control remaining” value is 108.269%.

Take `Cc1nc(C)c(CCC(=O)Nc2ccc(N3CCOCC3)cc2)c(=O)[nH]1` [CBK306059]: the “% of control remaining” value is on record as 110.575%.

Take `Cc1cnn(C2CN(CC(=O)N3CCc4sccc4C3)C2)c1` [CBK305097]: the “% of control remaining” value is 126.394%.

`C=CCNC(=O)N1CC[C@H]2CC(=O)N(Cc3ccc(OC)cc3)CC[C@H]2C1` [CBK288790]: the “% of control remaining” value was 133.697%.

As to `CC1CCN(C(=S)NC2CC3CCC2C3)CC1` (centres unmarked) [CBK085998], the “% of control remaining” value was 127.727%.

In the case of `CCn1c2c(c3cc(S(=O)(=O)c4ccc(C(F)(F)F)cc4)ccc31)CCNCC2` [CBK018453C], the “% of control remaining” value was found to be 11.5532%.

For `CCn1cncc1C(=O)Nc1ccc(-n2ccnc2C(C)C)cc1` [CBK281379], the “% of control remaining” value came out at 100.737%.

Turning to `CC(C)(C)CC(C)(C)NC(=O)NCCc1cccs1` [CBK038697], the “% of control remaining” value turned out to be 108.48%.

`CCCCOC(=O)c1c(N)n(-c2ccc(C(=O)O)cc2)c2nc3ccccc3nc12` [CBK265046]: the “% of control remaining” value was 100%.

`Cn1c(SCC(=O)N2CCN(c3cccc(Cl)c3)CC2)nnc1-c1cccc([N+](=O)[O-])c1` [CBK266264]: the “% of control remaining” value came out at 144.485%.

Consider `CCN1CC2(CCN(Cc3ncc[nH]3)CC2)c2ccccc21` [CBK131486], for which the “% of control remaining” value was found to be 182.095%.

As to `CCCC(=O)N1CCC[C@H]1Cn1nc(-c2ccc(F)cc2)ccc1=O` [CBK284288], the “% of control remaining” value was found to be 114.114%.

As to `O=C(Oc1ccc(F)cc1C(=O)/C=C/c1cccs1)c1ccc([N+](=O)[O-])cc1` [CBK264925], the “% of control remaining” value was found to be 120.983%.

In the case of `CN(C)CCn1cnc2c1c(=O)[nH]c(=O)n2Cc1ccccc1` [CBK291235], the “% of control remaining” value was 122.029%.

For `CCCCNc1cc(N2CCOC(Cn3cc(C)cn3)C2)nc(N)n1` (centres unmarked) [CBK305417], the “% of control remaining” value was 79.3767%.

As to `CC(C)OC(=O)Cn1c(C2CCCNC2)cc2cccnc21` (centres unmarked) [CBK285058], the “% of control remaining” value stood at 123.443%.

For the compound `Cn1cc(C2CCCCCN2C(=O)c2ccccc2F)cn1` (centres unmarked) [CBK285119], the “% of control remaining” value was found to be 107.473%.

Turning to `COc1cc(-c2cncc(NCc3ccncc3)n2)cc(OC)c1OC` [CBK065263], the “% of control remaining” value was 133.445%.

`O=C(CCC(=O)Nc1ccc(I)cc1)N/N=C/c1ccc(Br)cc1` [CBK262010]: the “% of control remaining” value was determined as 107.824%.

`CC(=O)N1CCc2cc(-c3cc4c(C)cccn4c3)ccc21` [CBK285225]: the “% of control remaining” value worked out at 131.169%.

With `CC(NC(=O)Cc1ccc(F)cc1)c1nc2cccnc2n1C(C)C` (centres unmarked) [CBK283830], the “% of control remaining” value was 120.569%.

Regarding `COc1ccc2cc(COC(=O)c3ccc([S+](C)[O-])cc3)c(Cl)nc2c1` (centres unmarked) [CBK298267], the “% of control remaining” value was 138.505%.

Take `Cc1ccc(NC(=O)Cc2ccc(N(C)C)cc2)c(C)n1` [CBK200295]: the “% of control remaining” value amounted to 135.107%.

Consider `CC(C)Nc1cncc(OC2CCOC2)n1` (centres unmarked) [CBK115882], for which the “% of control remaining” value was found to be 135.123%.

As for `Cc1cccc(-c2nnc(SCC3CC3)n2CC2CCCCC2)c1` [CBK085423], the “% of control remaining” value was determined as 115.218%.

Consider `COc1ccc(S(=O)(=O)N(Cc2c(F)cccc2F)C2CCN(C)CC2)cc1` [CBK161910T], for which the “% of control remaining” value worked out at 110.633%.

Consider `CCCn1nnc(NCc2ccc(Cl)cc2)n1` [CBK288089], for which the “% of control remaining” value was determined as 140.748%.

Turning to `CCOC(=O)c1c(N)n(-c2cccc(C(F)(F)F)c2)c2nc3ccccc3nc12` [CBK264977], the “% of control remaining” value came to 113.603%.

On to `CCCCSc1nc(N)cc(N2CCC(C(=O)N3CCOCC3)CC2)n1` [CBK306619], for which the “% of control remaining” value stood at 109.973%.

`CC(Cn1cccn1)C(=O)N1CCc2sccc2C1C` (centres unmarked) [CBK282074]: the “% of control remaining” value was found to be 95.5147%.

Regarding `Cc1ccc(Cl)cc1N(CC(=O)Nc1ccccc1C(=O)O)S(C)(=O)=O` [CBK264020], the “% of control remaining” value is reported as 100%.

For the compound `CN(C)c1cccc(Nc2cc(-c3cccc([N+](=O)[O-])c3)ncn2)c1` [CBK091012], the “% of control remaining” value is reported as 116.92%.

`O=C(NCC(c1cccnc1)N1CCOCC1)c1cnc(-c2ccc(Cl)cc2)c(-c2ccco2)c1` (centres unmarked) [CBK037554]: the “% of control remaining” value was found to be 207.819%.

Take `O=C(NCc1cccs1)C1(c2ccccc2)CCCC1` [CBK149533]: the “% of control remaining” value is reported as 115.877%.

Consider `O=C(NCCCn1ccnc1)c1cc(-c2ccccc2Cl)nc2ccccc12` [CBK262656], for which the “% of control remaining” value came out at 112.06%.

Consider `CCOc1cc(/C=C2/SC(=S)N(c3cccc(Cl)c3)C2=O)ccc1OCC(=O)O` [CBK264966], for which the “% of control remaining” value turned out to be 107.896%.

Turning to `Nc1nc(/C=C/c2cccs2)nc(-c2ccccc2O)n1` [CBK270033], the “% of control remaining” value is 113.017%.

For the compound `CS(=O)(=O)Nc1nccnc1OC1CCN(CC2CCCCC2)CC1` [CBK084284], the “% of control remaining” value is 106.262%.

For `COc1ccnc(N2CCN(C(=O)c3ccncc3Cl)CC2)n1` [CBK304367], the “% of control remaining” value stood at 75.3665%.

In the case of `O=C(O)CCc1ccc(S(=O)(=O)NCc2ccccc2)cc1` [CBK287054], the “% of control remaining” value stood at 160.235%.

For the compound `Cc1nc(-c2ccccc2)sc1CNC(=O)/C=C\C(=O)Nc1ccc(F)cc1` [CBK092357], the “% of control remaining” value was 154.058%.

On to `O=c1c2cnc3ccnn3c2ccn1C1CCCC1` [CBK288074], for which the “% of control remaining” value is recorded as 4.4152%.

As to `CCC(Sc1nnc(-c2ccc([N+](=O)[O-])cc2)n1C)C(=O)Nc1ccc(Cl)cc1` (centres unmarked) [CBK265785], the “% of control remaining” value came out at 124.124%.

Regarding `O=S(=O)(Nc1cccc2[nH]ccc12)c1ccc(F)cc1` [CBK153522], the “% of control remaining” value is reported as 112.186%.

As to `O=C(CC1CCCO1)N1CCn2c(nnc2-c2cncc(Br)c2)C1` (centres unmarked) [CBK304762], the “% of control remaining” value worked out at 117.13%.

Regarding `Cc1cc(N2CCC(c3cc(CCOc4ccc(Cl)cc4)[nH]n3)C2)nc(C)n1` (centres unmarked) [CBK286119], the “% of control remaining” value amounted to 93.0159%.

With `COc1cc(=O)n(C)c(C)n1` [CBK007924], the “% of control remaining” value is given as 108.777%.

Take `CCN(CC)C(=O)C1CCCN(C(=O)Nc2ccc(Cl)cc2)C1` (centres unmarked) [CBK156136]: the “% of control remaining” value amounted to 133.981%.

For `Cc1cc(C)n(C(C)CC(=O)Nc2cccc(OC(C)C)c2)n1` (centres unmarked) [CBK281538], the “% of control remaining” value turned out to be 101.12%.

For `O=C(c1ccc(F)cc1)[C@H]1CCCN(C(=O)c2n[nH]c3c2CCC3)C1` [CBK282322], the “% of control remaining” value stood at 121.073%.

`COCc1nc2n(n1)CC(NC1CCCCc3ccccc31)CC2` (centres unmarked) [CBK304445]: the “% of control remaining” value came to 103.43%.

`CN(C(=S)NCc1ccccc1)C1CC[C@@]2(c3ccc(F)cc3)CCN(C)[C@H]2C1` (some centres unmarked) [CBK003500C]: the “% of control remaining” value is recorded as 118.494%.

Regarding `Cc1csc(-c2ccc(C(=O)N(C)CCN(C)C)c(N(C)C)n2)c1` [CBK106088], the “% of control remaining” value is 126.476%.

As to `N#Cc1ccc(CNC2(Cc3cc(C(=O)N4CCCCC4)on3)COC2)cc1` [CBK289672], the “% of control remaining” value is recorded as 166.233%.

Regarding `c1cc(COc2cncc(N3CCCC3)n2)cs1` [CBK115669], the “% of control remaining” value is reported as 129.467%.

Consider `CCCc1cc(C(N)=O)c(NC(=O)c2sc3ccccc3c2Cl)s1` [CBK268178], for which the “% of control remaining” value was 127.941%.

In the case of `O=C1CC(c2ccccc2)CC(NCc2ccccc2)=C1C(=S)Nc1ccccc1` (centres unmarked) [CBK264491], the “% of control remaining” value was 121.251%.

Consider `CCOc1ccccc1N(CC(=O)Nc1ccc(C)cc1C)S(C)(=O)=O` [CBK263799], for which the “% of control remaining” value is reported as 115.477%.

Regarding `O=C(O)c1ccc(NS(=O)(=O)c2cccs2)cc1O` [CBK092145], the “% of control remaining” value is 160.968%.

On to `O=C(COc1ccc2oc3ccccc3c2c1)c1ccccc1` [CBK268931], for which the “% of control remaining” value is recorded as 137.677%.

As to `COc1cccc(CNC(C(=O)O)c2ccc3c(c2)OCO3)c1` (centres unmarked) [CBK015420D], the “% of control remaining” value turned out to be 28.0043%.

As to `Cc1cccc(-c2nc(C3CCCNC3)n3ccccc23)c1` (centres unmarked) [CBK035528], the “% of control remaining” value came out at 103.54%.

Turning to `COc1ccccc1-c1ccc(CC2(C(=O)NCCc3ccccc3)CCOCC2)cc1` [CBK286516], the “% of control remaining” value worked out at 74.5367%.

For the compound `O=C(C1=C(O)C(=O)N(CCCn2ccnc2)C1c1ccc(Br)cc1)c1ccc2c(c1)OCCO2` (centres unmarked) [CBK266081], the “% of control remaining” value is 174.64%.

Consider `c1nn(C2CCCCC2)cc1-c1cncn1CCCN1CCCCC1` [CBK281495], for which the “% of control remaining” value amounted to 106.018%.

On to `CCC(C)C(NC(=O)Cc1c[nH]c2ccccc12)C(=O)O` (centres unmarked) [CBK286720], for which the “% of control remaining” value turned out to be 108.283%.

Consider `COc1cc(/C=N/Nc2nc(Nc3ccccc3)nc(Nc3ccccc3)n2)ccc1O` [CBK262584], for which the “% of control remaining” value is 77.7949%.

As for `NC(=O)c1ccc(NC(=O)CCCc2nc(-c3ccccc3Cl)no2)cc1` [CBK268932], the “% of control remaining” value was found to be 108.921%.

As to `Cc1ccc2nc(O)c(C3=NN(C(=O)CCC(=O)O)C(c4ccco4)C3)c(-c3ccccc3)c2c1` (centres unmarked) [CBK267544], the “% of control remaining” value was 145.732%.

In the case of `COc1ccc(CNCc2ccc(Cl)cc2)cc1OC` [CBK263315], the “% of control remaining” value amounted to 124.515%.

Turning to `Cc1onc(-c2ccccc2)c1CNC(=O)c1cscn1` [CBK144089], the “% of control remaining” value is listed as 100.339%.

`Cc1cccc(OC(C)C(=O)Nc2ccc(S(=O)(=O)N3CCOCC3)cc2)c1` (centres unmarked) [CBK269609]: the “% of control remaining” value is reported as 99.6246%.

Take `CN(C)c1ncc(CNc2nc(O)c3c(n2)CCCC3)cn1` [CBK305460]: the “% of control remaining” value was determined as 148.477%.
